This note sets out measurements from PMC8651671.

Construct, isoform or probe ends are uncertain for at least one entry. Negatives hold for the conditions tested. Protein sequences can lack the tags named with them.

This data set deals with T1, DhdR (GntR family regulator) (Achromobacter denitrificans NBRC 15125) (UniProt A0A6N0JVZ6).
T1 sequence (looked up, limits assumed): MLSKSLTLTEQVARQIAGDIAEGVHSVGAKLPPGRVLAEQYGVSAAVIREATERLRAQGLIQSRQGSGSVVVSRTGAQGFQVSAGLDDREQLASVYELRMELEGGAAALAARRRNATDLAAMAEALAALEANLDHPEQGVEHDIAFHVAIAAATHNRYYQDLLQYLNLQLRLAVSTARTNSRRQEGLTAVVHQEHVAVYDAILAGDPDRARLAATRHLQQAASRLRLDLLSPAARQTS
The data set can be described thus: EMSA. The conditions noted are these: up to 100 nM DhdR; EMSA/footprint: 10 mM Tris-HCl pH 7.4, 50 mM KCl, 0.5 mM EDTA, 10% glycerol, 1 mM DTT, 30 C; recombinant protein; protein details: His6 (pETDuet-1); probe letters rebuilt from the primers and the genome.

Regarding “CCATCCGGAACAGGGCGTCGAGCACGACATCGCCTTCCACGTCGCCATCGCCGCCGCCACGCACAACCGTTATTACCAGGACCTGCTGCAGTACCTGAACCTGCAGCTGCGCCTGGCCGTCAGCACCGCGCGCACCAACAGCCGCCGTCAGGAGGGCCTGACCGCGGTGGTGCACCAGGAACACGTGGCCGTCTACGACG (double strand) [internal fragment of dhdR (negative control)]”, the binding result was “no binding”.
